# Measurements taken from the supplement of paper PMC10849652.
# The chains behind the UniProt entries cited, without tags or fusion partners. Where a name states a change or a piece, a line headed by the entry shows the natural chain unless it says otherwise.
# UniProt Q9P000, whole entry, looked up: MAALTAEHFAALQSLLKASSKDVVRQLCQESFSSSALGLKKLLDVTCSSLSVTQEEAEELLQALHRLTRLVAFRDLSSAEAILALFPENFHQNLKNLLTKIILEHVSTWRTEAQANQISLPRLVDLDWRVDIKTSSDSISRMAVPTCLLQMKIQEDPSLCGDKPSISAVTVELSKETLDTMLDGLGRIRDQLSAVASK
# UniProt Q7Z5Q1: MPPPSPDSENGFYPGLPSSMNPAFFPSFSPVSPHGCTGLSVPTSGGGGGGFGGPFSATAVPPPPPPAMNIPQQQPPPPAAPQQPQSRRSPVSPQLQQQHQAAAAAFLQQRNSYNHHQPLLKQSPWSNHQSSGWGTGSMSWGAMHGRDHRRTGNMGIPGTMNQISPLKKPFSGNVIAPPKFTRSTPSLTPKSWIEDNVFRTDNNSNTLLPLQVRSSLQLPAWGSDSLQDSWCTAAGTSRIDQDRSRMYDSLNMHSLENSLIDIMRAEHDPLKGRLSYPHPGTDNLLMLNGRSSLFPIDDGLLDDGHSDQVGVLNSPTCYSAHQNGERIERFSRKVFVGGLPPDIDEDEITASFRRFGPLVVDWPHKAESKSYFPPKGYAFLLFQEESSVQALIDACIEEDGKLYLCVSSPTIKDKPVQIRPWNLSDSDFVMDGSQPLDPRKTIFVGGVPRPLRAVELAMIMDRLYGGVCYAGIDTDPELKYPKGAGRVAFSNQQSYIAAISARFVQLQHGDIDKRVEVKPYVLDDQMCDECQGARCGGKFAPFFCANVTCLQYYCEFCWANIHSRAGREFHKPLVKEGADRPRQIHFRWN
# UniProt Q9H3G5: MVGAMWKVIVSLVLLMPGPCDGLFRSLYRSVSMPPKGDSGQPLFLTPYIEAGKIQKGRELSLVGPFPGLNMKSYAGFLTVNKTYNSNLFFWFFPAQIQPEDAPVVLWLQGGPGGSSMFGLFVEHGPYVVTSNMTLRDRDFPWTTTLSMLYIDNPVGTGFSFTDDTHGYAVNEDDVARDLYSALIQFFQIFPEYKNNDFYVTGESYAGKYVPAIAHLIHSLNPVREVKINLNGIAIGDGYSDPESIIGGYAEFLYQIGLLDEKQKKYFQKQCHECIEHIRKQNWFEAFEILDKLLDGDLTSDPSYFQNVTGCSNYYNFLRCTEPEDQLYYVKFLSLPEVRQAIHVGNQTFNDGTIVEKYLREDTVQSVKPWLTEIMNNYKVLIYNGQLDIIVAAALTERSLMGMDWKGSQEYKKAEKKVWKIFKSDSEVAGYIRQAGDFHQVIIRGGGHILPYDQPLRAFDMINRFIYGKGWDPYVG
# UniProt P16220: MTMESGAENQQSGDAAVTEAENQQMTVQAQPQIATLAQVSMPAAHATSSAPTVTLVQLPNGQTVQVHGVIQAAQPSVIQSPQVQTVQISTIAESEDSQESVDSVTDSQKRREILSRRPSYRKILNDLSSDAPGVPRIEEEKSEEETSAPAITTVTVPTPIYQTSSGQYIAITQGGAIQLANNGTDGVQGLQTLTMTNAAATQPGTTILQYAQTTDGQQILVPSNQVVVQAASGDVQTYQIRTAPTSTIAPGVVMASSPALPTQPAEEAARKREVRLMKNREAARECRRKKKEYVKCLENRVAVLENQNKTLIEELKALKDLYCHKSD
# UniProt O75718: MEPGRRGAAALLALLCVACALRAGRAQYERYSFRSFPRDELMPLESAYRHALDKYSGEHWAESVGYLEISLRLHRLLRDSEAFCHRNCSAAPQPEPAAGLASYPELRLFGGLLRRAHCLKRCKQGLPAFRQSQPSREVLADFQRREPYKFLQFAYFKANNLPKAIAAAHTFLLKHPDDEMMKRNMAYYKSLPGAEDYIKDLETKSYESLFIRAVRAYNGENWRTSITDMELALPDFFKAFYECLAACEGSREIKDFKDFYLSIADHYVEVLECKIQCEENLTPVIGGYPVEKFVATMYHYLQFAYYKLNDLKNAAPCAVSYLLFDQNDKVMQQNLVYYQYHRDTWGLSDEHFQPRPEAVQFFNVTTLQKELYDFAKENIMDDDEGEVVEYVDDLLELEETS
# UniProt Q9H9Q2: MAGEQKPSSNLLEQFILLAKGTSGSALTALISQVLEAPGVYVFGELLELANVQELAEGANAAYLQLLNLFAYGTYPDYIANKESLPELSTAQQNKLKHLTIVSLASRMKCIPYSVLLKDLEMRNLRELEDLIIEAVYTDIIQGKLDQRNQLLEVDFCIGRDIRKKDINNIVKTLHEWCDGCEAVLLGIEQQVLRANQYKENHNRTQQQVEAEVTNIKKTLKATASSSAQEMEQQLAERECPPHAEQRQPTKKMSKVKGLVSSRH
# UniProt P10606, whole entry, looked up: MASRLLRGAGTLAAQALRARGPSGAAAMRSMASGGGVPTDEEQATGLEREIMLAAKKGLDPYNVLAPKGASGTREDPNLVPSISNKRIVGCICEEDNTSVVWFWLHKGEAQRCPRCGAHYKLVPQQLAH
# UniProt Q9Y646: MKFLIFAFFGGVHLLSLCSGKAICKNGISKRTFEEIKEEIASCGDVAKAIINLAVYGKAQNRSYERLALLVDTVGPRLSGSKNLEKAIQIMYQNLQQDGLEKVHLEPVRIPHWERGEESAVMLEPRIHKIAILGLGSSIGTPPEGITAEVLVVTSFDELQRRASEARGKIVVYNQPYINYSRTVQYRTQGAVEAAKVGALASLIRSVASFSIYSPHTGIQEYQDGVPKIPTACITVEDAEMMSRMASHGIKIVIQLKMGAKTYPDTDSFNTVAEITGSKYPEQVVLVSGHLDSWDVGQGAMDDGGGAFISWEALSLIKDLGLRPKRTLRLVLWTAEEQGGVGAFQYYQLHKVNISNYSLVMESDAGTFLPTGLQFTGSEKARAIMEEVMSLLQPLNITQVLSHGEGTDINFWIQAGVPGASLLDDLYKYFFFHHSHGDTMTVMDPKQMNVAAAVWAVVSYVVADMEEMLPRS
# UniProt P46109: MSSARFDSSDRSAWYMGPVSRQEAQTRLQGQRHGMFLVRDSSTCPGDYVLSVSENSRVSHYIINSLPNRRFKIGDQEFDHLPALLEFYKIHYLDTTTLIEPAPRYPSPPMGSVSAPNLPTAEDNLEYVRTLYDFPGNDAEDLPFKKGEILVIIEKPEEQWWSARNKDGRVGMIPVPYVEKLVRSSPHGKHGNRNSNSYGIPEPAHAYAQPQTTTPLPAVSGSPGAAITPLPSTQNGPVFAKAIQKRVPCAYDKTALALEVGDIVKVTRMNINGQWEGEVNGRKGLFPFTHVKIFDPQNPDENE
# UniProt Q86VX2, whole entry, looked up: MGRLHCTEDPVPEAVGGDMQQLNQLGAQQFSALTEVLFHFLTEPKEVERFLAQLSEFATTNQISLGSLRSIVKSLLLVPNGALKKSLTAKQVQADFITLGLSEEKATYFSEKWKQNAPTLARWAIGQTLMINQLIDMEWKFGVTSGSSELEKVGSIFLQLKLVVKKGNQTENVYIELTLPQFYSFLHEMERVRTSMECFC
# UniProt Q8N752: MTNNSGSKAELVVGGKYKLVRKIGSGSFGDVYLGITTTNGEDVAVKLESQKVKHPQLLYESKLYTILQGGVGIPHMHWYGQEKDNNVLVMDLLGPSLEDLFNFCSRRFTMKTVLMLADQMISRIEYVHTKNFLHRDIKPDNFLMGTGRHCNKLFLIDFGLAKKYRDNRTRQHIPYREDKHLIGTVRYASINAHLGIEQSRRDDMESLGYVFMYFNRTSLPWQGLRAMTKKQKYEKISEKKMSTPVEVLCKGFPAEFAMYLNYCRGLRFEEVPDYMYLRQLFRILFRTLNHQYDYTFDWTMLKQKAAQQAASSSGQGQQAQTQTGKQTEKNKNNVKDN
# UniProt P67870, whole entry, looked up: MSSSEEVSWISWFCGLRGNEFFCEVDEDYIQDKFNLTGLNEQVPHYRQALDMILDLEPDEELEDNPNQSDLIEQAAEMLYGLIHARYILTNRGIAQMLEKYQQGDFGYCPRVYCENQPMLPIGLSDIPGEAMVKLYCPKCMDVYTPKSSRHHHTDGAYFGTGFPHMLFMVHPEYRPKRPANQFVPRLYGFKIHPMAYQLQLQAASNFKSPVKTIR
# UniProt P31327: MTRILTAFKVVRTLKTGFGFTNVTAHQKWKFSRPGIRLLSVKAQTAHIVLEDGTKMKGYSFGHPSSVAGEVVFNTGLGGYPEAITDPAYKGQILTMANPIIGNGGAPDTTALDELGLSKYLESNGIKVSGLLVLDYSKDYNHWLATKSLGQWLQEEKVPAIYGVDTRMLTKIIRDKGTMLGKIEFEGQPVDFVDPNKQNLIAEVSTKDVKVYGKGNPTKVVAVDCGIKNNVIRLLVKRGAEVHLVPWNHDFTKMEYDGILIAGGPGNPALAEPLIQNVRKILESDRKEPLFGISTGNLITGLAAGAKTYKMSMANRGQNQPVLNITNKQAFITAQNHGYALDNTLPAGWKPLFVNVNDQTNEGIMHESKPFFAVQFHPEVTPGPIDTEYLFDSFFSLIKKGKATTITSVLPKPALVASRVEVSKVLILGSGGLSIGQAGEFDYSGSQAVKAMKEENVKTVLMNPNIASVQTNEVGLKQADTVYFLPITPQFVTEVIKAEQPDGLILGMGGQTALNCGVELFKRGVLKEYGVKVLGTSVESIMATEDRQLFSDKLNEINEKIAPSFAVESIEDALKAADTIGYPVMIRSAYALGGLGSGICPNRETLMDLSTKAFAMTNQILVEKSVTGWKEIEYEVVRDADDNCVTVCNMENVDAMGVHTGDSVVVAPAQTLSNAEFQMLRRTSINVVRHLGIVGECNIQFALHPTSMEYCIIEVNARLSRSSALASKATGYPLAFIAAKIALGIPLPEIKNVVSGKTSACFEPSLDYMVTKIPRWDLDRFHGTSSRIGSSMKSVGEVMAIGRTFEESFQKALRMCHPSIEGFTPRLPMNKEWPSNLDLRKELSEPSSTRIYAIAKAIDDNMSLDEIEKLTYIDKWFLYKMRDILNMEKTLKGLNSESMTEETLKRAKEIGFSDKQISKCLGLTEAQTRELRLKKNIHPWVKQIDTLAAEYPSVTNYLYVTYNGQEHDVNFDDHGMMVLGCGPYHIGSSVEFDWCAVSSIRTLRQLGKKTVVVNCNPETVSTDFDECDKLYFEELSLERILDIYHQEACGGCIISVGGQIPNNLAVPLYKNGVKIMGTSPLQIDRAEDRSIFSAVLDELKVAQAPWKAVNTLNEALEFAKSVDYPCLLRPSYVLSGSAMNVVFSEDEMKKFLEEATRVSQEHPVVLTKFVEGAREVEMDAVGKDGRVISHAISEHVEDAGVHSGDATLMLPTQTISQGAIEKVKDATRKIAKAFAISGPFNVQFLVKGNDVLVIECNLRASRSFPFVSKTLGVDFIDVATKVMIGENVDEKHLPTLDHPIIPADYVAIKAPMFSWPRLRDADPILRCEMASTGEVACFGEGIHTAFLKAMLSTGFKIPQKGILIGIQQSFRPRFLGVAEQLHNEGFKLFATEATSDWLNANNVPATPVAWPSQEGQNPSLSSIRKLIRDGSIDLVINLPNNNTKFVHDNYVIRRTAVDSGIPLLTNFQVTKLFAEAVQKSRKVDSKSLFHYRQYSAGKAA
# UniProt P19784, whole entry, looked up: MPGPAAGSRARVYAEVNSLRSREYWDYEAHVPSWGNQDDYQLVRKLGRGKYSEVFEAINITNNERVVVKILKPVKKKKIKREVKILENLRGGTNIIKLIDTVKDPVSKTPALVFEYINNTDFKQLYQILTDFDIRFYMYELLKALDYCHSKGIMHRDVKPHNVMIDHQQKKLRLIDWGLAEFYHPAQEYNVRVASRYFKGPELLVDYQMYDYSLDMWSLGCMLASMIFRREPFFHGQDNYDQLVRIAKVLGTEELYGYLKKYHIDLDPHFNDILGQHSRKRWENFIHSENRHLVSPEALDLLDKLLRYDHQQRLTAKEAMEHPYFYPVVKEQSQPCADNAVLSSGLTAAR
# UniProt Q9Y2Z9: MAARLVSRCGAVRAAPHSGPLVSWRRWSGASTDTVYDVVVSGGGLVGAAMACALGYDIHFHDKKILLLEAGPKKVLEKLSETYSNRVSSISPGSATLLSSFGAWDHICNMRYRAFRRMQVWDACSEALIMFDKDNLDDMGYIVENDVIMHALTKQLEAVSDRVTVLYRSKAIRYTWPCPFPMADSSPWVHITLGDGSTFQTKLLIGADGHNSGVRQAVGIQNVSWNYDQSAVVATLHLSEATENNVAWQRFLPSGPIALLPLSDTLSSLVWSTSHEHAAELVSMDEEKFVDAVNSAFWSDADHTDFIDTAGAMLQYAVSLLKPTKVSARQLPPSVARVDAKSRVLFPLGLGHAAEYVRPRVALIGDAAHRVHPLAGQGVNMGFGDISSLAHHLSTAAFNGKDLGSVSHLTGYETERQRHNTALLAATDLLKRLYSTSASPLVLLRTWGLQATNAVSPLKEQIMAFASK
# The other results are listed elsewhere or left out.
# How the values were obtained:
# Assay in all cases: log2 fold change, soluble protein after heating vs DMSO (PISA); higher = thermal stabilisation; K562 cells, 10 uM, 30 min; active = over 0.2 and 3.5 SD of the protein, either way, in both replicates (recomputed)
# [1] = compound: CS(=O)(=O)c1ccc(-c2cnc(N)c(C(=O)Nc3ccccc3)n2)cc1
# Method in brief: (§1)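 K562 cells (2×10^6 cells/mL) were treated with 10 μM compound for 30 min, and aliquots were heated for 3 min over 48°C-58°C. Pooled aliquots were extracted in PBS with 0.5% NP-40 at 4°C, and the supernatant after 21,000xg for 90 min was measured by TMTpro 16plex LC-MS/MS with channel sums equalised. Reported thermal stability, relative to control samples and from duplicates, is a log2 fold change.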
# [2] = compound: C[C@@H](Oc1cc(-c2cnn(C3CCNCC3)c2)cnc1N)c1c(Cl)ccc(F)c1Cl [crizotinib]
# Method in brief: as §1
# [3] = compound: C[C@@H]1COCCN1C2=NC(=NC(=C2)C3(CC3)S(=O)(=O)C)C4=C5C=CNC5=CC=C4
# Method in brief: as §1
# [4] = compound: C[C@H](C1=CC=C(C=C1)C(=O)NC2=C3C=CNC3=NC=C2)N
# Method in brief: as §1
# [5] = compound: C[C@H](Nc1ncnc2nc[nH]c12)c1cc2cccc(Cl)c2c(=O)n1-c1ccccc1 [duvelisib]
# Method in brief: as §1
# [6] = compound: Cc1cc(Nc2cc(CN3CCOCC3)c3nc(C)c(Cc4ccc(Cl)cc4F)n3n2)n[nH]1 [gandotinib]
# Method in brief: as §1
# [7] = compound: Cc1cc(Nc2cc(N3CCN(C)CC3)nc(Sc3ccc(NC(=O)C4CC4)cc3)n2)n[nH]1 [tozasertib]
# Method in brief: as §1
# [8] = compound: Cc1cc(SCc2sc(-c3ccc(C(F)(F)F)cc3)nc2C)ccc1OCC(=O)O
# Method in brief: as §1
# [9] = compound: Cc1ccc(-n2nc(C(C)(C)C)cc2NC(=O)Nc2ccc(OCCN3CCOCC3)c3ccccc23)cc1 [doramapimod]
# Method in brief: as §1
# [10] = compound: Cc1ccc(C(=O)N(CCCN)[C@@H](c2nc3cc(Cl)ccc3c(=O)n2Cc2ccccc2)C(C)C)cc1 [ispinesib]
# Method in brief: as §1
# [11] = compound: Cc1ccc(NC(=O)c2ccc(CN3CC[C@H](N(C)C)C3)c(C(F)(F)F)c2)cc1Nc1nccc(-c2cncnc2)n1 [bafetinib]
# Method in brief: as §1
# [12] = compound: Cc1cccc(CC(=O)N2CCc3c2ccc(-c2cn(C)c4ncnc(N)c24)c3F)n1
# Method in brief: as §1
# [13] = compound: Cc1cn(-c2cc(NC(=O)c3ccc(C)c(Nc4nccc(-c5cccnc5)n4)c3)cc(C(F)(F)F)c2)cn1 [nilotinib]
# Method in brief: as §1
# [14] = compound: Cc1nc(Nc2n[nH]c3c2CN(C(=O)N[C@H](CN(C)C)c2ccccc2)C3(C)C)c2sccc2n1
# Method in brief: as §1
# [15] = compound: Cc1nc(Nc2ncc(C(=O)Nc3c(C)cccc3Cl)s2)cc(N2CCN(CCO)CC2)n1 [dasatinib]
# Method in brief: as §1
# [16] = compound: Cc1ncc(-c2ccnc(Nc3ccc(S(C)(=O)=O)cc3)n2)n1C(C)C
# Method in brief: as §1
# [17] = compound: Cn1cc(-c2ccc3c(c2)CCN3C(=O)Cc2cccc(C(F)(F)F)c2)c2c(N)ncnc21
# Method in brief: as §1
# [18] = compound: Cn1cc(-c2ccc3nnc(C(F)(F)c4ccc5ncccc5c4)n3n2)cn1
# Method in brief: as §1
# [19] = compound: Cn1cncc1[C@@](N)(c1ccc(Cl)cc1)c1ccc2c(c1)c(-c1cccc(Cl)c1)cc(=O)n2C [tipifarnib]
# Method in brief: as §1
# [20] = compound: FC(F)(F)c1ccc(/C=C/c2nc(COc3ccc(CCCCn4ccnn4)cc3)co2)cc1 [mubritinib]
# Method in brief: as §1
Target,log2 fold change [1],log2 fold change [2],log2 fold change [3],log2 fold change [4],log2 fold change [5],log2 fold change [6],log2 fold change [7],log2 fold change [8],log2 fold change [9],log2 fold change [10],log2 fold change [11],log2 fold change [12],log2 fold change [13],log2 fold change [14],log2 fold change [15],log2 fold change [16],log2 fold change [17],log2 fold change [18],log2 fold change [19],log2 fold change [20]
COMMD9 (UniProt Q9P000),inactive: -0.139,inactive: -0.056,inactive: 0.197,inactive: 0.025,inactive: 0.121,inactive: 0.103,inactive: 0.151,inactive: 0.064,inactive: 0.051,inactive: 0.098,inactive: 0.031,inactive: -0.019,inactive: 0.015,inactive: 0.01,inactive: 0.048,inactive: -0.042,inactive: -0.05,inactive: 0.082,inactive: 0.073,inactive: 0.033
CPEB2 isoform 9 (UniProt Q7Z5Q1),inactive: -0.043,inactive: 0.209,inactive: -0.272,inactive: 0.142,inactive: 0.04,–,inactive: -0.048,inactive: 0.08,inactive: 0.225,inactive: -0.024,inactive: 0,–,–,–,inactive: -0.098,–,inactive: -0.119,inactive: 0.087,inactive: -0.188,–
CPVL (UniProt Q9H3G5),inactive: 0,inactive: -0.084,inactive: 0.078,inactive: 0.171,inactive: 0.205,inactive: 0.023,inactive: -0.053,inactive: -0.046,inactive: -0.004,inactive: -0.194,inactive: -0.028,inactive: -0.046,inactive: -0.156,inactive: 0.041,inactive: 0.043,inactive: -0.054,inactive: -0.03,inactive: 0.097,inactive: 0.069,inactive: 0.027
CREB1 (UniProt P16220),inactive: 0.023,inactive: 0.101,inactive: 0.001,inactive: -0.088,inactive: 0.061,inactive: 0.058,inactive: -0.02,inactive: -0.121,inactive: -0.005,inactive: -0.015,inactive: -0.019,inactive: 0.016,inactive: -0.006,inactive: -0.022,inactive: 0.016,inactive: 0,inactive: 0.061,inactive: -0.01,inactive: 0.025,inactive: -0.029
CRTAP (UniProt O75718),inactive: 0.023,inactive: 0.085,inactive: -0.094,inactive: 0.139,inactive: -0.047,inactive: 0.061,inactive: 0.038,inactive: 0.061,inactive: 0.012,inactive: -0.008,inactive: 0.083,inactive: 0.019,inactive: 0.022,inactive: 0.061,inactive: 0.013,inactive: -0.027,inactive: -0.094,inactive: -0.004,inactive: 0.07,inactive: -0.134
COPS7B (UniProt Q9H9Q2),inactive: 0.029,inactive: 0.014,inactive: -0.097,inactive: -0.109,inactive: 0.022,inactive: -0.051,inactive: 0.035,inactive: -0.05,inactive: -0.058,inactive: 0.096,inactive: -0.03,inactive: 0,inactive: 0.046,inactive: -0.003,inactive: 0.017,inactive: 0.012,inactive: -0.001,inactive: -0.005,inactive: -0.014,inactive: 0.007
COX5B (UniProt P10606),inactive: -0.07,inactive: 0.186,inactive: 0.081,inactive: -0.169,–,inactive: 0.218,–,inactive: -0.001,inactive: 0.022,inactive: 0.265,inactive: -0.032,inactive: 0.013,inactive: 0.026,inactive: 0.011,inactive: 0.105,inactive: -0.043,inactive: 0.134,inactive: 0.221,inactive: -0.108,inactive: 0.024
CPQ (UniProt Q9Y646),inactive: -0.013,inactive: -0.023,inactive: -0.001,inactive: 0.049,–,inactive: 0.055,–,inactive: -0.058,inactive: 0.03,inactive: 0.011,active: -0.207,inactive: 0,inactive: 0.017,inactive: 0.053,inactive: 0.069,inactive: -0.046,inactive: 0.012,inactive: -0.025,inactive: 0.031,inactive: 0.044
CRKL (UniProt P46109),inactive: 0.037,active: -1.34,inactive: 0.008,inactive: -0.045,–,inactive: -0.027,–,inactive: 0.012,inactive: -0.024,inactive: 0.046,active: -1.41,inactive: 0.013,active: -1.34,inactive: -0.054,active: -2.17,inactive: 0.023,inactive: 0.004,inactive: 0.028,inactive: 0.024,inactive: 0.049
COMMD7 (UniProt Q86VX2),inactive: 0.05,inactive: -0.067,inactive: -0.104,inactive: -0.085,inactive: 0.093,inactive: 0.042,inactive: 0.038,inactive: -0.017,inactive: 0.025,inactive: -0.045,inactive: -0.075,inactive: -0.016,inactive: 0.026,inactive: 0.021,inactive: 0.065,inactive: 0.05,inactive: -0.008,inactive: -0.036,inactive: -0.045,inactive: 0.045
CPNE2 (UniProt Q96FN4),inactive: 0.124,inactive: -0.034,inactive: 0.021,inactive: 0.055,inactive: -0.061,inactive: -0.315,inactive: 0.086,inactive: -0.141,inactive: -0.033,inactive: -0.017,inactive: -0.119,inactive: 0.132,inactive: 0.081,inactive: 0.067,inactive: 0.105,inactive: 0.053,inactive: 0,inactive: -0.018,inactive: 0.09,inactive: 0.097
CSNK1A1L (UniProt Q8N752),inactive: -0.067,inactive: -0.094,inactive: -0.091,inactive: -0.01,inactive: 0.009,inactive: 0.006,inactive: -0.039,inactive: 0.03,inactive: 0.054,inactive: -0.088,inactive: 0.083,inactive: 0.105,inactive: -0.036,inactive: -0.004,inactive: -0.005,inactive: 0.066,inactive: -0.083,inactive: -0.047,inactive: -0.016,inactive: -0.093
CRACR2A isoform 2 (UniProt Q9BSW2),inactive: 0.101,inactive: 0.142,inactive: -0.08,inactive: 0.021,inactive: 0.122,inactive: 0.016,inactive: -0.012,inactive: -0.028,inactive: -0.004,inactive: 0.104,inactive: 0.038,inactive: -0.022,inactive: 0.056,inactive: -0.075,inactive: 0.018,inactive: 0.136,inactive: -0.044,inactive: -0.016,inactive: -0.003,inactive: 0.111
CSNK2B (UniProt P67870),inactive: 0.05,inactive: -0.037,inactive: 0.049,inactive: -0.128,–,inactive: -0.027,–,inactive: -0.005,inactive: -0.002,inactive: 0.016,inactive: 0.036,inactive: 0.014,inactive: 0.052,inactive: 0.018,inactive: 0.015,inactive: -0.05,inactive: 0.038,inactive: -0.01,inactive: -0.042,inactive: -0.017
CPS1 isoform 3 (UniProt P31327),inactive: 0.05,inactive: 0.306,inactive: 0.014,inactive: 0.09,inactive: 0.123,inactive: -0.054,inactive: 0.164,inactive: -0.212,inactive: 0.007,inactive: -0.039,inactive: -0.011,inactive: -0.077,inactive: 0.029,inactive: -0.055,inactive: -0.029,inactive: 0.199,inactive: 0.158,inactive: 0.03,inactive: 0.029,inactive: -0.19
CSNK2A2 (UniProt P19784),inactive: 0.068,inactive: -0.132,inactive: 0.039,active: -0.234,–,inactive: -0.097,–,inactive: 0.013,inactive: 0.007,inactive: 0.084,inactive: -0.042,inactive: -0.008,inactive: -0.009,inactive: 0.016,inactive: -0.056,inactive: -0.019,inactive: -0.009,inactive: 0.038,inactive: -0.033,inactive: -0.019
COQ6 (UniProt Q9Y2Z9),inactive: 0.069,inactive: 0.021,inactive: 0.087,inactive: 0.015,inactive: 0.044,inactive: 0.169,inactive: -0.023,inactive: 0.048,inactive: -0.051,inactive: 0.008,inactive: -0.03,inactive: 0.064,inactive: 0.034,inactive: -0.051,inactive: -0.093,inactive: -0.053,inactive: 0.064,inactive: 0.074,inactive: -0.056,inactive: 0.042

# An excerpt from above, showing only log2 fold change [19] and log2 fold change [12]:
Target	log2 fold change [19]	log2 fold change [12]
CREB1 (UniProt P16220)	inactive: 0.025	inactive: 0.016
CRTAP (UniProt O75718)	inactive: 0.07	inactive: 0.019
